{
  "source": "PubChem BioAssay AID1347076",
  "about": "(National Center for Advancing Translational Sciences (NCATS), 2019)",
  "note": "In all, about 400,000 compounds went through this assay and about 13,000 (3.2%) were called active. The shares of active, inactive and inconclusive entries below differ from those in the screen. Calls follow the shape of the dose curve; as a rule, active = well fitted cell-killing curve with a large enough effect; inconclusive = small, poorly fitted or top-dose-only effect, or effect the other way; inactive = flat fitted curve, though single readings scatter. Potencies beside an inconclusive call are fits to weak or partial responses and may not hold up. Where a SMILES comes first, the peptide text is derived from it. [ ]: non-standard residue; d: D form. ξ: configuration not given here. ξF = NC(Cc1ccccc1)C(=O)O",
  "data": [
    {"assay": "qHTS assay for MDR1-selective chemotherapeutics: Primary screen using the drug-selected MDR subline cells KB-V1; also: nearly all actives have a fitted effect of over 60% in size; also: potency is read from the fitted curve at half-maximal effect; as to activity change, negative = cytotoxicity: % is scaled to controls: 0 for no effect and ±100 for the full control effect", "settings": "KB-V1 MDR cells viability, CellTiter-Glo, 72 h; activity change, negative = cytotoxicity: at 46.1 µM (top of the series)", "how_it_was_run": "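KB-V1 cells (P-gp-expressing MDR subline of KB-3-1) in phenol-red-free DMEM with 10% FBS were exposed to library compounds over a concentration series for 72 h at 37 degrees C. Viability read by CellTiter-Glo luminescence; concentration-effect curves fitted after normalization.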", "values": [
      {"smiles": "CCc1nnc(NC(=O)c2cc(-c3ccccc3)nn2-c2ccccc2)s1", "activity change, negative = cytotoxicity": "inactive: -13.5%"},
      {"smiles": "COc1cccc(CN(C)C(=O)CSCC(=O)Nc2ccc(C)cc2)c1OC", "Potency": "inconclusive: 20.6 µM [cytotoxic, partial curve]"},
      {"smiles": "Cc1cc(N)ccc1NC(=O)CN1CCCC1", "activity change, negative = cytotoxicity": "inactive: -0.759%"},
      {"smiles": "Cc1ccccc1-n1c(C)nnc1SCc1cc(=O)oc2ccc3ccccc3c12", "Potency": "inconclusive: 20.6 µM [cytotoxic, single point]"},
      {"smiles": "COc1ccc(-n2c(Cc3cccn3C)nnc2SCC(=O)NCCc2ccccc2)cc1", "Potency": "active: 9.2 µM"},
      {"smiles": "COc1ccccc1Nc1nn2c(=O)c3ccc(C(=O)Nc4ccc(F)cc4)cc3nc2s1", "Potency": "inconclusive: 16.4 µM [rising, single point]"},
      {"smiles": "O=C(NC1CCCC1)C(c1ccccc1)n1c(-c2cccs2)nc2ccccc21", "note": "(stereo not given)", "Potency": "inconclusive: 5.17 µM [cytotoxic, partial curve]"},
      {"smiles": "COc1ccc(C2=Nn3c(nnc3-c3ccccc3F)SC2)cc1OC1CCOC1", "note": "(stereo not given)", "Potency": "active: 20.6 µM"},
      {"smiles": "CC(=O)NCC(=O)NC(Cc1ccccc1)C(N)=O", "note": "(stereo not given) (Ac-Gly-[ξF]-NH2)", "Potency": "inconclusive: 20.6 µM [rising, single point]"},
      {"smiles": "COc1ccc(NC(=O)/C=C/c2ccc(S(=O)(=O)N3CCOCC3)cc2)cc1", "Potency": "inconclusive: 23.1 µM [rising, single point]"},
      {"smiles": "CC(C(=O)Nc1ccccc1-c1ccccc1)N1CCOCC1", "note": "(stereo not given)", "Potency": "inconclusive: 29.1 µM [cytotoxic, partial curve, poor fit]"},
      {"smiles": "Cc1oc(=O)c(NC(=O)c2ccccc2)cc1C(=O)c1ccccc1", "activity change, negative = cytotoxicity": "inactive: -5.47%"},
      {"smiles": "CCC(C)[C@H](NC(=O)N1CCn2c1nc1ccccc12)C(=O)NCc1ccccc1", "note": "(stereo not given in full)", "Potency": "inconclusive: 2.91 µM [cytotoxic, partial curve, poor fit]"},
      {"smiles": "Nc1nc(-c2ccc(Cl)cc2)c(N=Nc2ccc(S(=O)(=O)N3CCOCC3)cc2)s1", "Potency": "inconclusive: 29.1 µM [cytotoxic, single point]"},
      {"smiles": "Cc1ccc(N2CC(C(=O)Nc3nccs3)CC2=O)cc1Cl", "note": "(stereo not given)", "Potency": "active: 7.31 µM"},
      {"smiles": "Cc1ccc(NC(=O)C2(C)CCN2C(=O)Cc2ccc(-c3ccccc3)cc2)cc1", "note": "(stereo not given)", "Potency": "inconclusive: 16.4 µM [cytotoxic, single point]"},
      {"smiles": "Cc1ccc(C(=O)N2CCN(c3ccc([N+](=O)[O-])c(NCc4cccnc4)c3)CC2)cc1", "Potency": "inconclusive: 16.4 µM [cytotoxic, partial curve, poor fit]"},
      {"smiles": "CCCc1cc(-c2nc(-c3ccc(C)cc3)cs2)ccn1", "Potency": "inconclusive: 29.1 µM [cytotoxic, single point]"},
      {"smiles": "CCOC(=O)c1[nH]c(C)c(CCC(=O)NCc2ccc(C)cc2)c1C", "activity change, negative = cytotoxicity": "inactive: -2.15%"},
      {"smiles": "Cc1ccc(-c2cc(C(=O)OCC(=O)N(C)C3CCS(=O)(=O)C3)c3ccccc3n2)c(C)c1", "note": "(stereo not given)", "Potency": "inconclusive: 20.6 µM [cytotoxic, single point]"},
      {"smiles": "O=C(NCc1ccccc1)C1(c2ccccc2)CCN(S(=O)(=O)c2ccccc2)CC1", "Potency": "inconclusive: 13 µM [cytotoxic, partial curve]"},
      {"smiles": "COc1cc(OC)cc(-c2c(-c3cccs3)c3cc(-c4cccc5[nH]ccc45)ccc3n2C)c1", "Potency": "inconclusive: 1.16 µM [rising, full curve, poor fit]"},
      {"smiles": "Cc1ccc(NC(=O)C2=CCN(S(=O)(=O)c3ccc(F)cc3)CC2)cc1", "activity change, negative = cytotoxicity": "inactive: -16.4%"},
      {"smiles": "Cc1ccc2c(c1)N(C(=O)CCC(=O)NCCCN1CCN(C)CC1)CC(C)O2", "note": "(stereo not given)", "activity change, negative = cytotoxicity": "inconclusive: 33.7%"},
      {"smiles": "CCOC(=O)c1ccc(NC(=O)CCc2c(C)n(CC)c3cc(-c4ccccc4OC)nn3c2=O)cc1", "Potency": "inconclusive: 20.6 µM [rising, single point]"},
      {"smiles": "O=C(CSCC(=O)Nc1nc(-c2ccc3c(c2)OCO3)cs1)Nc1nccs1", "Potency": "inconclusive: 29.1 µM [cytotoxic, single point]"},
      {"smiles": "O=C(c1cccc(Br)c1)c1cn(-c2ccccc2)nc1C(=O)c1ccccc1", "Potency": "active: 11.6 µM"},
      {"smiles": "COc1ccc(C(=O)NN2C(=S)N(c3ccc(OC)cc3)C(=O)C2CC(N)=O)cc1", "note": "(stereo not given)", "Potency": "inconclusive: 29.1 µM [rising, single point]"},
      {"smiles": "CCNC(=O)c1ccccc1NC(=O)c1cccc(S(=O)(=O)N2CCC(C)CC2)c1", "Potency": "active: 16.4 µM"},
      {"smiles": "Cc1nc2ncccn2c1-c1csc(Nc2ccc(O)cc2)n1", "activity change, negative = cytotoxicity": "inactive: -11.6%"},
      {"smiles": "CS(=O)(=O)c1ccc(-c2sc3cc4c(cc3c2C(=O)NN2CCOCC2)OCO4)cc1", "Potency": "inconclusive: 2.06 µM [rising, partial curve, poor fit]"},
      {"smiles": "Cc1ccc(/C=C/S(=O)(=O)NCC(=O)OCC(=O)Nc2c(F)cccc2F)cc1", "Potency": "inconclusive: 29.1 µM [rising, single point]"},
      {"smiles": "Cc1cccc(NC(=O)Nc2ccc(Cl)cc2)n1", "Potency": "inconclusive: 0.731 µM [cytotoxic, full curve, poor fit]"},
      {"smiles": "Nc1nc(Cl)nc2c1ncn2[C@H]1C[C@H](O)[C@@H](CO)O1", "Potency": "inconclusive: 29.1 µM [cytotoxic, single point]"},
      {"smiles": "CCOC(=O)C1CCCN(C(=O)CCc2ccccc2)C1", "note": "(stereo not given)", "Potency": "inconclusive: 16.4 µM [cytotoxic, partial curve, poor fit]"},
      {"smiles": "Cc1cc(C(=O)Cn2nc(C(=O)O)c3ccccc3c2=O)c(C)n1-c1ccccc1", "Potency": "active: 16.4 µM"},
      {"smiles": "O=C(/C(=C(\\[O-])c1ccccc1)[n+]1ccc2ccccc2c1)c1ccc([N+](=O)[O-])cc1", "activity change, negative = cytotoxicity": "inactive: 3.29%"},
      {"smiles": "Cc1ccc2c(CC(=O)Nc3c(C(=O)c4ccc(F)cc4)oc4ccccc34)coc2c1", "Potency": "inconclusive: 9.2 µM [rising, partial curve, poor fit]"},
      {"smiles": "COc1ccc(C(=O)C2CCCN(C3Cc4ccccc4C3)C2)c(OC)c1", "note": "(stereo not given)", "activity change, negative = cytotoxicity": "inactive: -16.6%"},
      {"smiles": "Cc1ccc(NC(=O)Cn2cnc3ccccc32)cc1C", "activity change, negative = cytotoxicity": "inactive: -12.8%"},
      {"smiles": "CC(NC(=O)COC(=O)c1cc(=O)c2ccccc2o1)c1ccccc1", "note": "(stereo not given)", "activity change, negative = cytotoxicity": "inactive: -9.54%"},
      {"smiles": "Cc1ccc(NC(=O)c2cc(S(=O)(=O)N3CCOCC3)ccc2F)c(C)c1", "Potency": "active: 13 µM"},
      {"smiles": "CCOc1ccc(OCCC(=O)N2CCc3cc(OC)c(OC)cc3C2)cc1", "Potency": "inconclusive: 13 µM [cytotoxic, partial curve]"},
      {"smiles": "CCOC(=O)C1CCN(C(=O)C2COc3ccccc3O2)CC1", "note": "(stereo not given)", "Potency": "inconclusive: 29.1 µM [rising, single point]"},
      {"smiles": "Cn1c(CNC(=O)c2ccc3c(c2)OCO3)nnc1SCC(=O)Nc1ccccc1F", "activity change, negative = cytotoxicity": "inactive: 12.8%"},
      {"smiles": "COc1ccc(N2CCN(C(=O)c3nn(C)c4c3CS(=O)(=O)c3ccccc3-4)CC2)cc1", "Potency": "inactive"},
      {"smiles": "COc1ccc(-c2nc3c(c(SCc4cc(C)ccc4C)n2)Cc2c(CO)cnc(C)c2O3)cc1", "activity change, negative = cytotoxicity": "inactive: 9.49%"},
      {"smiles": "COc1cc(-c2cc(-c3nnco3)c3ccccc3n2)cc(OC)c1OC", "Potency": "inconclusive: 10.3 µM [cytotoxic, partial curve]"},
      {"smiles": "Cn1c(N2CCCCC2)nc2c1c(=O)n(Cc1cccc(Br)c1)c(=O)n2C", "Potency": "active: 10.3 µM"},
      {"smiles": "CC1CCC(NC(=O)C2CCN(c3c4c(nc5ncnn35)CCC4)CC2)CC1", "note": "(stereo not given)", "Potency": "inconclusive: 32.6 µM [cytotoxic, single point]"},
      {"smiles": "CCC(=O)OCc1cnc(C)c2oc(=O)c(C(=O)Nc3ccc(CC)cc3)cc12", "activity change, negative = cytotoxicity": "inactive: -14.5%"},
      {"smiles": "CC(C)C[C@H]1CNC(=O)C(=O)N1CC1CCN(CC2CCC(C(C)(C)C)CC2)CC1", "note": "(stereo not given in full)", "activity change, negative = cytotoxicity": "inactive: 16.1%"},
      {"smiles": "O=C(COC(=O)C1CCCC1)Nc1ncc(Cl)cc1Cl", "activity change, negative = cytotoxicity": "inactive: 1.52%"},
      {"smiles": "CCOc1ccc(C(=O)NC(=S)Nc2ccccc2OC)cc1[N+](=O)[O-]", "Potency": "inconclusive: 5.8 µM [cytotoxic, full curve]"},
      {"smiles": "O=C(NCCC1=CCCCC1)C1CCN(C(=O)c2ccc(Br)cc2)CC1", "Potency": "inconclusive: 16.4 µM [cytotoxic, partial curve]"},
      {"smiles": "O=C(CCCCN1CCCCC1)c1ccccc1", "Potency": "inconclusive: 25.9 µM [rising, single point]"},
      {"smiles": "O=C(c1cc2nc(-c3ccco3)cc(C(F)(F)F)n2n1)N1CCN(Cc2ccccc2)CC1", "Potency": "inconclusive: 10.3 µM [cytotoxic, partial curve, poor fit]"},
      {"smiles": "CC[C@@]12C(=O)N(c3ccc(OC)cc3)C(=O)N1[C@H](c1ccc(Cl)cc1)[C@@H]1C(=O)N(C3CCCCC3)C(=O)[C@@H]12", "activity change, negative = cytotoxicity": "inactive: -8.4%"},
      {"smiles": "O=C(Nc1nonc1NC(=O)c1cccs1)c1cccs1", "Potency": "active: 10.3 µM"},
      {"smiles": "Cc1c(CCCl)c(Cl)n2c(nc3ccccc32)c1C#N", "Potency": "active: 1.64 µM"},
      {"smiles": "Cc1cccc(/C=N/Nc2cc(N3CCOCC3)nc(N3CCOCC3)n2)c1", "Potency": "active: 14.6 µM"},
      {"smiles": "Clc1ccc(CON/C=N/c2ncnc3sccc23)cc1", "Potency": "inconclusive: 29.1 µM [cytotoxic, single point]"},
      {"smiles": "COc1ccc(N2C(=S)NC3CS(=O)(=O)CC32)cc1", "note": "(stereo not given)", "Potency": "inconclusive: 9.2 µM [rising, partial curve, poor fit]"},
      {"smiles": "Nc1ccc2ccccc2c1[N+](=O)[O-]", "Potency": "inconclusive: 14.6 µM [cytotoxic, single point]"},
      {"smiles": "O=c1c2ccccc2nc(/C=C/c2ccc(O)cc2)n1CCc1ccccc1", "Potency": "active: 14.6 µM"},
      {"smiles": "CS(=O)(=O)N(CC(=O)NC1CCCCCC1)Cc1ccccc1", "Potency": "inconclusive: 20.6 µM [cytotoxic, single point]"},
      {"smiles": "Cc1ccc(OCc2cc(C(=O)NC(C)Cc3cnccn3)no2)cc1C", "note": "(stereo not given)", "Potency": "inconclusive: 23.1 µM [cytotoxic, single point]"},
      {"smiles": "Cc1cc(C(=O)N/N=C/c2ccc3c(c2)OCO3)c2ccccc2n1", "Potency": "inconclusive: 2.91 µM [cytotoxic, full curve, poor fit]"},
      {"smiles": "Cc1ccc2nc(-c3ccc(NC(=O)C(F)(F)F)cc3)sc2c1", "activity change, negative = cytotoxicity": "inactive: -20.2%"},
      {"smiles": "COCCCNC(=O)CCc1nc2cccnc2n1Cc1ccc(OC)cc1", "Potency": "inconclusive: 23.1 µM [cytotoxic, partial curve, poor fit]"}
    ]}
  ]
}
